Results are given in words; binding and its absence hold for the method and conditions named. Binding seen in cells or lysates may run through a third protein. These calls come from enrichment with a bait or labelling near it, and not all partners need be listed.
Target: Cyclic adenosine monophosphate (cAMP) response element-binding protein (CREB), endogenous (human (endogenous in Bel-7402 and SMMC-7721)) (UniProt P16220)
Assay: affinity purification with mass spectrometry; proteins immunoprecipitated by anti-CREB antibodies from Bel-7402 cells, ESI-Q-TOF-MS, three independent times

Amino acid sequences for entries named in this document (tags omitted).
UniProt Q12905: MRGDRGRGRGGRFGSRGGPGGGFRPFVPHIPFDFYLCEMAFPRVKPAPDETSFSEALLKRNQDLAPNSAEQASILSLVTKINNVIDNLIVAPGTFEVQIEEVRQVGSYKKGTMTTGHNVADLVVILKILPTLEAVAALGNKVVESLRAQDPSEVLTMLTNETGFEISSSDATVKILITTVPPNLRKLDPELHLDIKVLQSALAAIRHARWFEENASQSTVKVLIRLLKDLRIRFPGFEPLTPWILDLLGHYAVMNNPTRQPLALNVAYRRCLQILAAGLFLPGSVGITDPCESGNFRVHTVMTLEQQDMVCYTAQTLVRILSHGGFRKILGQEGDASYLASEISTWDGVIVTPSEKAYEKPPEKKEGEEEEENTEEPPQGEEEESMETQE

With “Interleukin enhancer binding factor 2 (ILF2), endogenous (from UniProt Q12905 1-390)” the binding was “binds”.
